Results: PMC5845512
These are yes or no findings as the source states them, for the method shown. In cells and extracts the contact can be indirect. Some binding calls cover weakened binding; strength is not graded here.

The chains behind the UniProt entries cited, without tags or fusion partners. Residues count along the entry.
UniProt O14786, residues 22-923: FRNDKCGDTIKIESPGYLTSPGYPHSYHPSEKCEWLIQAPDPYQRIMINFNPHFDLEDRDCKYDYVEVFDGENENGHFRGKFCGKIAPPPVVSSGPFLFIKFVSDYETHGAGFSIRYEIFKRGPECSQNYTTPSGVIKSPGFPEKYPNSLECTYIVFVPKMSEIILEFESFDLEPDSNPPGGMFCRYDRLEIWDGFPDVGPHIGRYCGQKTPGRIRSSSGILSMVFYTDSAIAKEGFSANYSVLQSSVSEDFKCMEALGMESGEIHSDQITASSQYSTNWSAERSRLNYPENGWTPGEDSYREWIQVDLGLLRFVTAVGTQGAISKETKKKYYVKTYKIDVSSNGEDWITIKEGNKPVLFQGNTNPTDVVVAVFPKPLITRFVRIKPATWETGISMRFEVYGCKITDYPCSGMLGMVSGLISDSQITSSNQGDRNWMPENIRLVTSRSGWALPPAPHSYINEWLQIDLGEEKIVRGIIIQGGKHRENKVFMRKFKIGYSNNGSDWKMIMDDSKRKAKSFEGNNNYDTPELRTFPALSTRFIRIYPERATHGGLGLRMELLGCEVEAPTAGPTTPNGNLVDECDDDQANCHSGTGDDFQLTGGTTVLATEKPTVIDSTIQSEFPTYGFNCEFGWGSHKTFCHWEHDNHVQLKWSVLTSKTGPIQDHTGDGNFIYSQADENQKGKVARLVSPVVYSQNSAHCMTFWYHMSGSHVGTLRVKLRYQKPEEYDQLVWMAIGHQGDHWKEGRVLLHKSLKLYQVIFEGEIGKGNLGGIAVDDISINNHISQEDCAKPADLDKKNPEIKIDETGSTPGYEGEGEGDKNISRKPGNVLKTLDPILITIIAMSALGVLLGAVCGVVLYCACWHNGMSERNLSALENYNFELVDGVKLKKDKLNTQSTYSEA

Biological target: Neuropilin 1 (NRP1) (human (endogenous in ASCs)) (UniProt O14786)
Experiment: co-IP; ASCs untreated or treated with 20 ng/ml KGF for 5 min, lysed in RIPA buffer; 800 ug lysate immunoprecipitated with anti-NRP1 antibody overnight at 4°C, Protein A/G PLUS-Agarose; blotted with anti-FGF7 and anti-NRP1; only the binder purified

B1: Keratinocyte growth factor (KGF) (ligand, UniProt P21781 32-194)
chain: CNDMTPEQMATNVNCSSPERHTRSYDYMEGGDIRVRRLFCRTQWYLRIDKRGKVKGTQEMKNNYNIMEIRTVAVGIVAIKGVESEFYLAMNKEGKLYAKKECNEDCNFKELILENHYNTYASAKWTHNGGEMFVALNQKGIPVRGKKTKKEQKTAHFLPMAIT
  binding: binds
